Reference: article PMC6218445
These are yes or no findings as the source states them, for the method shown. Binding seen in cells or lysates may run through a third protein. Some results given as binding are weak or reduced against the parent protein; the word gives no strength.

Sequences of proteins named here, by UniProt entry; tags and fusion partners are left off. A change or cut given only in a name is not applied to a line headed by its entry. A line that says so, or that is headed by a name, gives the form on record, which may keep a tag or linker.
UniProt Q13315: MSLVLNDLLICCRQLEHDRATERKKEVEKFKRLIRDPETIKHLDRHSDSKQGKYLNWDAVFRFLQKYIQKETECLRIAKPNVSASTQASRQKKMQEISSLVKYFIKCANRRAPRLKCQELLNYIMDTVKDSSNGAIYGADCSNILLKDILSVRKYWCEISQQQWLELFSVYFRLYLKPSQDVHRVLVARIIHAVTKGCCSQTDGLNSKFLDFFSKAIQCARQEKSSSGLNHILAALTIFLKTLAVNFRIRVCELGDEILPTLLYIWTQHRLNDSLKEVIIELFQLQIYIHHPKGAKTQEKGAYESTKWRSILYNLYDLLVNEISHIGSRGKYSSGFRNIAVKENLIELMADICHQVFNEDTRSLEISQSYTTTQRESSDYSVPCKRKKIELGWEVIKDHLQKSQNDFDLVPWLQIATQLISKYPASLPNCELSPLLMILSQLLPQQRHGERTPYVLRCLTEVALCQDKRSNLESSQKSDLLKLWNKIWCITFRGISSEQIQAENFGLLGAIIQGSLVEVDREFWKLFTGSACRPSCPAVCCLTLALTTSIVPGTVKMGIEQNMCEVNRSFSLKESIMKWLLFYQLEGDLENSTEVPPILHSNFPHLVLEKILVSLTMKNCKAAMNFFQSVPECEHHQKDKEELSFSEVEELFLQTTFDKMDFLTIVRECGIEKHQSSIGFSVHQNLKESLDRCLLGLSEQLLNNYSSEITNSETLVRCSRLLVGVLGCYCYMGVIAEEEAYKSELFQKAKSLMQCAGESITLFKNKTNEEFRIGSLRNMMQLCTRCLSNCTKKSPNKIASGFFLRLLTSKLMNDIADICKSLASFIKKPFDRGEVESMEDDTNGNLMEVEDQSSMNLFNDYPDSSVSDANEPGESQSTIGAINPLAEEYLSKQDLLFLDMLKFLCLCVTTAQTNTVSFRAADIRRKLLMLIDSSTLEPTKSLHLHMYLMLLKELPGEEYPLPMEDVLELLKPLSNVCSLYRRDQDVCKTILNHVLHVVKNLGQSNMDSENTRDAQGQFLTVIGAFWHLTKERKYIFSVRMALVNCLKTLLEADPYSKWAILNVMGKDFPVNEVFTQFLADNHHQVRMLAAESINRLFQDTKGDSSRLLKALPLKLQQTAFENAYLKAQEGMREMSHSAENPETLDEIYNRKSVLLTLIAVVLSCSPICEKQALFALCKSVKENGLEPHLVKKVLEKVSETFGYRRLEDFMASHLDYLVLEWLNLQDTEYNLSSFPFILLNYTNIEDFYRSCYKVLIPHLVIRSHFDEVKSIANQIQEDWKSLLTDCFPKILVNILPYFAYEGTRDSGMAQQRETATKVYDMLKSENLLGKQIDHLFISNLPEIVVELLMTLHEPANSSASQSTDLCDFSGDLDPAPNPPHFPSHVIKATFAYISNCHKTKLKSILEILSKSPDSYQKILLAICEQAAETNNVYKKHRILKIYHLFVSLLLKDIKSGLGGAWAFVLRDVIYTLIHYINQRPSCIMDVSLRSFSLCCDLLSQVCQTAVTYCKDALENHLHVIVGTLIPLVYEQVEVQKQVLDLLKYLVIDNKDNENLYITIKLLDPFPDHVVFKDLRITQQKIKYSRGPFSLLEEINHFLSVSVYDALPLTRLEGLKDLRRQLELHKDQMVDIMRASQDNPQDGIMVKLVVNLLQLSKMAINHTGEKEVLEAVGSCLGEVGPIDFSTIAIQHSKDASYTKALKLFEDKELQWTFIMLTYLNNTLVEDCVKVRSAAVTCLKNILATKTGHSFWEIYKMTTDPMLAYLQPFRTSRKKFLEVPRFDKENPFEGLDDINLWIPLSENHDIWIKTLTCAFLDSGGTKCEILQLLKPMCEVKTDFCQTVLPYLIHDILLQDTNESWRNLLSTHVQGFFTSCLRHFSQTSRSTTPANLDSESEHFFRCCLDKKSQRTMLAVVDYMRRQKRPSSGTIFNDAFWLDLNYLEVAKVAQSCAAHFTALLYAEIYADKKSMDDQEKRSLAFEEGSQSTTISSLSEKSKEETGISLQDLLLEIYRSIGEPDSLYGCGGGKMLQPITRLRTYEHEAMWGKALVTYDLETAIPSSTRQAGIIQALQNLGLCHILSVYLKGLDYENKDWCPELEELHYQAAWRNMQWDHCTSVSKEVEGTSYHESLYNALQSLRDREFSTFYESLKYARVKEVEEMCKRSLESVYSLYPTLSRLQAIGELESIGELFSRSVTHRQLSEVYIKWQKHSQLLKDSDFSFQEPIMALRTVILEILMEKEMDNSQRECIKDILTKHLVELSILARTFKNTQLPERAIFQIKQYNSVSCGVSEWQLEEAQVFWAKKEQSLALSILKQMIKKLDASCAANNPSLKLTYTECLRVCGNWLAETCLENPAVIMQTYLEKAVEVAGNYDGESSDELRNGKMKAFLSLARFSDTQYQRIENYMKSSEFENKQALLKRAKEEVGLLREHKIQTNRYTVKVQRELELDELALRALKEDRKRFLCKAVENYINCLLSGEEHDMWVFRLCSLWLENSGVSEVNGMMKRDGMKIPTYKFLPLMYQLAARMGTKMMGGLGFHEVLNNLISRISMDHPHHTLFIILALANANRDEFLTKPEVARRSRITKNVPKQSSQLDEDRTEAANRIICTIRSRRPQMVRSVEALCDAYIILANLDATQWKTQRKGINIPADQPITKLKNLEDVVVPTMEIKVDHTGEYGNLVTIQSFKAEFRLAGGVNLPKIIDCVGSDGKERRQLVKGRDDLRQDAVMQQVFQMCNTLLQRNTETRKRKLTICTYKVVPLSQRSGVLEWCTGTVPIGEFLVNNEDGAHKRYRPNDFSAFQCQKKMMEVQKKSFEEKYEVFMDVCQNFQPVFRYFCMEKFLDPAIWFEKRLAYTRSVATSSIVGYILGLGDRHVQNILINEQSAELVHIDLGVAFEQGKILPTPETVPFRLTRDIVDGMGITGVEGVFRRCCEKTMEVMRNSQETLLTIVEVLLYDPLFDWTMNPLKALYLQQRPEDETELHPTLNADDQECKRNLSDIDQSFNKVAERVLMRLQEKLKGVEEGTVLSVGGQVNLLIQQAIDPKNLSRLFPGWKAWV
UniProt P14618: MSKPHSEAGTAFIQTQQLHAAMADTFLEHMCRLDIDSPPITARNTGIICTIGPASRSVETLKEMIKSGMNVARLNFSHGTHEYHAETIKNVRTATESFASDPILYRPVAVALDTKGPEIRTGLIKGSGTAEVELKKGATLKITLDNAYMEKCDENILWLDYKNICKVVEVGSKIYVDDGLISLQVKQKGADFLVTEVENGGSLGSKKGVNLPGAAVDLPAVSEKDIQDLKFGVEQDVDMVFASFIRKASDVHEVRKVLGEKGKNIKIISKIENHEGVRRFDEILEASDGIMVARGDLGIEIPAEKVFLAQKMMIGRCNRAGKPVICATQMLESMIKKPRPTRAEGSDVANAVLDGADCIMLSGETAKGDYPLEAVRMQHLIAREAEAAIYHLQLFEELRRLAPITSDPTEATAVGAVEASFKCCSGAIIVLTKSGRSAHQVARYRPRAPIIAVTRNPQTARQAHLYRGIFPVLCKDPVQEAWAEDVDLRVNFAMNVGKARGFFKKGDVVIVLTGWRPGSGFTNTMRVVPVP
PKM1 (P14618-2, form named): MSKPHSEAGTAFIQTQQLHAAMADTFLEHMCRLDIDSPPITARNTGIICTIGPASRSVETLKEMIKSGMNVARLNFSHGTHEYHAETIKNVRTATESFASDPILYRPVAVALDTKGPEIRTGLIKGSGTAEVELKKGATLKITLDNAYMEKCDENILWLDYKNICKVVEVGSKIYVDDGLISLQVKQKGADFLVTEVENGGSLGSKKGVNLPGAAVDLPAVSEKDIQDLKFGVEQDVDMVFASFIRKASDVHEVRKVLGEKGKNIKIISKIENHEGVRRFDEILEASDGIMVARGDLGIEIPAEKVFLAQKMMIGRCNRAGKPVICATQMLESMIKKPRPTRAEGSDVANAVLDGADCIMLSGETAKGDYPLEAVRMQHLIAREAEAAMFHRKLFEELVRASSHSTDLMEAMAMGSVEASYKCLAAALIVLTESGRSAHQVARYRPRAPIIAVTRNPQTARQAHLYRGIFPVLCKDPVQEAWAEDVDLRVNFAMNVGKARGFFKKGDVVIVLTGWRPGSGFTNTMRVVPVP
UniProt Q06609: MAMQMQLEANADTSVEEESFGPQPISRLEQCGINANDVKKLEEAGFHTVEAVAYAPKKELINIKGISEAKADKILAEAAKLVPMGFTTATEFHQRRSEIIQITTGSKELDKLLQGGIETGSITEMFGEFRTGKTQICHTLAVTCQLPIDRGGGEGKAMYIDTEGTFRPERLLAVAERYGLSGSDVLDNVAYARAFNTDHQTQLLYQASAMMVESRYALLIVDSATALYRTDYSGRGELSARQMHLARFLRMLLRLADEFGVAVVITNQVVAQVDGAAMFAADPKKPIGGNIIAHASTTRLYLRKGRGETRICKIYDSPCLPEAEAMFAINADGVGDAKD

What was measured:
[1] = target: ataxia telangiectasia mutated (human (endogenous in U87)) (UniProt Q13315); experiment: co-IP; lysates of U87 cells treated with 0 or 6 Gy, immunoprecipitated with antibodies against ATM, PKM2 or anti-rabbit IgG (reciprocal), immunoblot; endogenous proteins
[2] = target: pyruvate kinase M2 (human (endogenous in U87)) (UniProt P14618); experiment: co-IP; lysates of unirradiated or irradiated U87 cells, immunoprecipitated with PKM2 and CtIP antibodies or anti-rabbit IgG, western blot; endogenous proteins

| Substance | binding [1] | binding [2] |
| --- | --- | --- |
| PKM1 (from UniProt P14618-2 1-531) (enzyme) | no binding |  |
| pyruvate kinase M2 (from UniProt P14618 1-531) (enzyme) | binds |  |
| Rad51 (from UniProt Q06609 1-339) |  | binds |
